These are yes or no findings as the source states them, for the method shown. Binding seen in cells or lysates may run through a third protein. Some binding calls cover weakened binding; strength is not graded here. Sequences can lack the tags named with a protein. Values belong to the binder of their own block, whether it stands above or below them.
Columns and labels:
[1] = biological target: T1, Flag-PAB1 (yeast, UniProt P04147 1-577); assay: co-IP + AUC; as a1, but material migrating from 90S to 200S (polysomal translating complexes); cells on glucose (elongation), or glucose depleted 10 min and glucose added back for 1 min (initiation)
T1 sequence (looked up): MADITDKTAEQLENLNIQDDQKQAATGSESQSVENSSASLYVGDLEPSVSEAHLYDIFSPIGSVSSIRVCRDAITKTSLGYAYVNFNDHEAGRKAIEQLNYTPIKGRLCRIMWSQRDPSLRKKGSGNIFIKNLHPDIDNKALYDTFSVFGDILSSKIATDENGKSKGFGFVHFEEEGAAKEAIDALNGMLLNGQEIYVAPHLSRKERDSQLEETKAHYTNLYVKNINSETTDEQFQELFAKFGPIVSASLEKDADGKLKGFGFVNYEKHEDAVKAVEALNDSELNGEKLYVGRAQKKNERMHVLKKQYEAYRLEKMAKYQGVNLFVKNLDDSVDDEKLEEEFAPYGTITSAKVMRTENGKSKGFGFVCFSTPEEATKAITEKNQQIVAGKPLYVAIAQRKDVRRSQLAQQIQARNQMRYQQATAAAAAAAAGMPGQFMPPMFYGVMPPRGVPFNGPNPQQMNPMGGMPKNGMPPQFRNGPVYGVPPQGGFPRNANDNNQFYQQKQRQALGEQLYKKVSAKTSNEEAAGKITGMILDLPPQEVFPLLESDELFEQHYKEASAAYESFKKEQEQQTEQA

Amino acid sequences for entries named in this document (tags omitted).
UniProt P04456: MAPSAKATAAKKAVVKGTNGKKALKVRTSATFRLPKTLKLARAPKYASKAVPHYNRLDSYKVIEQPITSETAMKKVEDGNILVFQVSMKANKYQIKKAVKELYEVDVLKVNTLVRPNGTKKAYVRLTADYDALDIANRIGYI

[2] = biological target: RPL25A-Flag (yeast) (UniProt P04456); assay: co-IP + AUC; RPL25A-Flag anti-Flag bead purification from yeast crude extract, Flag peptide elution, AU-FDS of the GFP fusion; 80S free ribosome; cells depleted of glucose for 10 min, also on glucose
[3] = biological target: T1, Flag-PAB1; assay: co-IP + AUC; one-step anti-Flag bead purification from yeast crude extract (Tris pH 7.5, 0.15 M KCl, 2 mM MgCl2, 10% glycerol, 4°C), Flag peptide elution, then AU-FDS of the GFP fusion with AU-A230 or AU-A260 (20°C, 15,000 rpm); material migrating at 77S (monosomal translating complex); cycloheximide added to cells; cells on glucose (elongation), or glucose depleted 10 min and glucose added back for 1 min or 0 min (initiation)
[4] = biological target: T2, eIF4E-Flag (yeast, UniProt P07260 1-213); assay: as above
T2 sequence (looked up): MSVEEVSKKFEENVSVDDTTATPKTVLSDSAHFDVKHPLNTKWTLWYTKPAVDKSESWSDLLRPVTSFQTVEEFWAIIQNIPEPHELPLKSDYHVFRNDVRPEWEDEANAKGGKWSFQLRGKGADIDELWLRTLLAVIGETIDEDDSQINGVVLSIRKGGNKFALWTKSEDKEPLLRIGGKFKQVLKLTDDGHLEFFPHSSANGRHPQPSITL

[5] = biological target: T3, Flag-PAB1 (yeast), P04147; assay: co-IP; Flag-PAB1 co-expressed with PAB1-GFP in yeast; anti-Flag purification; fraction not stated; details: remark: other sources report otherwise
T3 chain: T1 sequence (looked up)

B1: RPL7A-GFP (protein, UniProt P05737 1-244)
chain: MAAEKILTPESQLKKSKAQQKTAEQVAAERAARKAANKEKRAIILERNAAYQKEYETAERNIIQAKRDAKAAGSYYVEAQHKLVFVVRIKGINKIPPKPRKVLQLLRLTRINSGTFVKVTKATLELLKLIEPYVAYGYPSYSTIRQLVYKRGFGKINKQRVPLSDNAIIEANLGKYGILSIDDLIHEIITVGPHFKQANNFLWPFKLSNPSGGWGVPRKFKHFIQGGSFGNREEFINKLVKSMN
binding [1]: binds

B3: PAB1-GFP (natural protein, yeast, UniProt P04147 1-577, looked up)
chain: T1 sequence (looked up)
notes: the printed name puts GFP after the protein; source: yeast strain carrying the GFP fusion, in crude extract
binding [5]: no binding

B5: RPL6B-GFP (protein, UniProt P05739 1-176)
chain: MTAQQAPKWYPSEDVAAPKKTRKAVRPQKLRASLVPGTVLILLAGRFRGKRVVYLKHLEDNTLLVTGPFKVNGVPLRRVNARYVIATSTKVSVEGVNVEKFNVEYFAKEKLTKKEKKEANLFPEQQTKEIKTERVEDQKVVDKALLAEIKKTPLLKQYLSASFSLKNGDKPHLLKF
binding [1]: binds

Further lines, results first:

binding [2]: binds | binding [3]: binds | binding [4]: binds | binding [1]: binds
B2: RPS4B-GFP (protein, UniProt P0CX36 1-261)
chain: MARGPKKHLKRLAAPHHWLLDKLSGCYAPRPSAGPHKLRESLPLIVFLRNRLKYALNGREVKAILMQRHVKVDGKVRTDTTYPAGFMDVITLDATNENFRLVYDVKGRFAVHRITDEEASYKLGKVKKVQLGKKGVPYVVTHDGRTIRYPDPNIKVNDTVKIDLASGKITDFIKFDAGKLVYVTGGRNLGRIGTIVHKERHDGGFDLVHIKDSLDNTFVTRLNNVFVIGEQGKPYISLPKGKGIKLSIAEERDRRRAQQGL

binding [2]: binds
B4: STM1-GFP (protein, UniProt P39015 1-273)
chain: MSNPFDLLGNDVEDADVVVLPPKEIVKSNTSSKKADVPPPSADPSKARKNRPRPSGNEGAIRDKTAGRRNNRSKDVTDSATTKKSNTRRATDRHSRTGKTDTKKKVNQGWGDDKKELSAEKEAQADAAAEIAEDAAEAEDAGKPKTAQLSLQDYLNQQANNQFNKVPEAKKVELDAERIETAEKEAYVPATKVKNVKSKQLKTKEYLEFDATFVESNTRKNFGDRNNNSRNNFNNRRGGRGARKGNNTANATNSANTVQKNRNIDVSNLPSLA

Reference: article PMC4783044, “Stoichiometry and Change of the mRNA Closed-Loop Factors as Translating Ribosomes Transit from Initiation to Elongation” (PLoS ONE, 2016)
